These results are taken from PubChem BioAssay AID901 (National Center for Advancing Translational Sciences (NCATS), 2007).

This is one part of the list. The main result of the screen is listed elsewhere. These columns were measured beside it and carry no call. Most of these compounds were active or inconclusive in the main read-out, so they are no random draw. The note in brackets gives the kind of curve behind each potency; many fits are weak.

The nature of this assay: qHTS Assay for Identifying the Cell-Membrane Permeable IMPase Inhibitors. As to conditions: CHO-M1 cells, IP1 accumulation, HTRF TR-FRET ratio; measured here: donor channel 620 nm AC50.
Turning to `O=C(CNS(=O)(=O)c1ccc2ccccc2c1)OCC(=O)c1ccc(Br)s1`, the AC50 is 12.6 µM [rising, single point].
`COc1ccc(CNC(=O)c2c(O)c3ccccc3n(C)c2=O)cc1OC`: the AC50 is 31.6 µM [rising, single point].
For `CCOC(=O)c1c(-c2cccc(C)c2)csc1NC(=O)C1CC=CCC1C(=O)O` (stereo unspecified), the AC50 is 31.6 µM [falling, single point].
As for `COc1ccc(OC)c(NC(=O)Cn2cc(C(=O)c3ccco3)c3ccccc32)c1`, the AC50 was 6.31 µM [falling, single point].
With `COc1ccc(Oc2nccc(-c3ccc(F)cc3)c2C#N)cc1`, the AC50 is 31.6 µM [rising, single point].
Under `CCCC(=O)N(Cc1cc2cccc(C)c2[nH]c1=O)c1ccccc1OC` stands 1 µM [falling, full curve, poor fit]; under `CCN(C(=O)COC(=O)c1cc2ccccc2cc1O)C1CCS(=O)(=O)C1` (stereo unspecified), 0.00794 µM [rising, full curve, poor fit]; under `Cc1ccc(N(C(=O)Cn2nnc3ccccc32)C(C(=O)NCc2ccco2)c2cccnc2)cc1` (stereo unspecified), 3.16 µM [falling, single point].
Take `COC(=O)C1=C(N)Oc2cc(C)n(Cc3cccnc3)c(=O)c2C1c1ccccc1OC` (stereo unspecified): the AC50 was 10 µM [falling, single point].
As for `O=C(O)C1CCCCC1C(=O)N1CC=C(c2ccccc2)CC1` (stereo unspecified), the figure is 0.158 µM [rising, full curve, poor fit]; as for `CCCONC(=O)Nc1ccccc1[N+](=O)[O-]`, 0.0708 µM [rising, full curve, poor fit]; as for `COc1cccc(NC(=O)Cn2cc(C(=O)C3CCCCC3)c3ccccc32)c1`, 35.5 µM [rising, single point].
`CCOC(=O)C1CCCN(CC(O)COc2ccc(OC)cc2C(C)(C)C)C1` (stereo unspecified): the half-maximal activity concentration (AC50) is 5.01 µM [rising, single point].
Under `COc1cccc(NC(=O)c2sc3nc(N4CCOCC4)c4c(c3c2N)CC(C)(C)OC4)c1` stands 35.5 µM [rising, single point].
Take `O=C(Nc1nnc(C23CC4CC(CC(C4)C2)C3)s1)c1ccc(N2C(=O)CCC2=O)cc1`: the AC50 was 0.158 µM [falling, full curve, poor fit].
Consider `O=C(O)CCC(=O)N1CCN(c2nc(-c3ccccc3Cl)c3cc(Br)ccc3n2)CC1`, for which the AC50 is 31.6 µM [rising, single point].
Under `COc1ccc(CCNC(=O)CSc2nc3cc(Cl)ccc3o2)cc1OC` stands 31.6 µM [falling, single point]; under `O=C(C1CC1)N1CCc2cc(Br)cc(S(=O)(=O)NCc3ccccn3)c21`, 1.12 µM [falling, full curve, poor fit]; under `CC(NC(=O)C(Cc1ccccc1)NC(=O)c1ccccc1)C(=O)O` (stereo unspecified), 0.794 µM [falling, full curve, poor fit].
As for `CC(=O)N1CCc2c(sc(NC(=O)c3ccc4c(c3)OCCO4)c2C#N)C1`, the figure is 31.6 µM [rising, single point]; as for `Cc1ccc(-c2nc(-c3cccnc3)no2)cc1`, 1 µM [falling, single point]; as for `COc1ccc(Cl)cc1NC(=O)CC(C)=O`, 0.398 µM [rising, full curve, poor fit].
Regarding `COc1cccc(-c2csc(N3CCN(C(=S)Nc4ccccc4Cl)CC3)n2)c1`, the AC50 is 6.31 µM [falling, partial curve, poor fit].
As for `COc1cc(/C=N/Nc2ccc3ccccc3c2)ccc1OC(=O)c1ccco1`, the AC50 was 5.62 µM [rising, single point].
In the case of `Cc1ccc(S(=O)(=O)N2CCN(CC(=O)N/N=C\c3ccc(Cl)c([N+](=O)[O-])c3)CC2)cc1`, the AC50 is 35.5 µM [rising, partial curve].
Regarding `Cc1cc(C2C(=O)CC(=O)CC2c2ccccc2)on1` (stereo unspecified), the concentration at half-maximal activity (AC50) was 31.6 µM [falling, single point].
As for `COc1ccccc1OCC(=O)NC1CCCCCC1`, the figure is 0.02 µM [rising, full curve, poor fit]; as for `Cc1cc(=O)oc2c(CN(C)Cc3ccccc3)c(O)ccc12`, 20 µM [rising, single point]; as for `COc1ccc(NC(=O)CN2CCN(c3ccc(F)cc3)CC2)cc1Cl`, 0.0126 µM [rising, full curve, poor fit].
Regarding `CCCc1cc(=O)n2[nH]c(NCc3ccccc3F)nc2n1`, the AC50 was 0.126 µM [falling, full curve, poor fit].
As for `CCCOc1ccc(C2c3c(oc4ccc(F)cc4c3=O)C(=O)N2CCc2ccc(OC)cc2)cc1` (stereo unspecified), the figure is 4.47 µM [rising, partial curve]; as for `Cc1[nH]c2ccccc2c1C(=O)COC(=O)C1CC(=O)N(Cc2ccccc2)C1` (stereo unspecified), 0.126 µM [falling, full curve, poor fit]; as for `COc1ccc(OC)c(S(=O)(=O)Nc2ccccc2C(F)(F)F)c1`, 1 µM [falling, full curve, poor fit].
Take `CCOc1cc(C(=O)NC(C)CC)cc(OCC)c1OCC` (stereo unspecified): the AC50 is 0.02 µM [rising, full curve, poor fit].
Take `O=C(Nc1ccccc1F)c1ccc(COc2ccc(Cl)cc2Cl)o1`: the AC50 was 1 µM [falling, full curve].
As for `C=CCNC(=O)c1cccn1-c1ccsc1C(=O)OC`, the figure is 5.01 µM [falling, partial curve, poor fit]; as for `N/C(=N\c1nc2c(c(=O)[nH]1)CCC2)Nc1cccc2ccccc12`, 0.398 µM [falling, full curve, poor fit]; as for `Cc1cc(C)cc(C(=O)NCCn2cc(SCC(=O)N3CCOCC3)c3ccccc32)c1`, 0.1 µM [falling, full curve, poor fit].
As for `COc1ccccc1N1CCN(C(=O)CSc2ccc3c(C)cc(C)nc3n2)CC1`, the AC50 was 0.126 µM [rising, full curve, poor fit].
For `NC1(C(=O)O)C[C@@H](C(=O)O)[C@H](C(=O)O)C1`, the AC50 is 31.6 µM [falling, single point].
As for `COc1ccc(Br)cc1S(=O)(=O)N1CC(C)OC(C)C1` (stereo unspecified), the figure is 12.6 µM [rising, partial curve]; as for `CCCCn1c(=N)n(CCOc2ccccc2OC)c2ccccc21`, 3.55 µM [rising, single point].
As to `Cc1onc(-c2ccccc2)c1C(=O)Nc1cccc(C#N)c1`, the AC50 was 0.891 µM [falling, full curve, poor fit].
Regarding `CCOC(=O)CN(C(=O)CSc1nnc(-c2ccncc2)n1CCCOC)c1ccccc1`, the AC50 was 12.6 µM [rising, partial curve, poor fit].
Turning to `CCOC(=O)c1sc(NC(=O)CN2C(=O)c3cccc4cccc(c34)C2=O)nc1C`, the AC50 was 31.6 µM [falling, single point].
With `CCCC(C)C(=O)Nc1nc(C)c(-c2csc(Nc3cc(OC)ccc3OC)n2)s1` (stereo unspecified), the AC50 was 25.1 µM [falling, single point].
Turning to `COc1cc(-c2nc(N)n[nH]2)cc(OC)c1OC`, the AC50 was 31.6 µM [falling, single point].
On to `CC(C)(C)n1nnnc1C(c1ccc(C#N)cc1)N1CCCC2(CCCCC2)C1` (stereo unspecified), for which the AC50 was 31.6 µM [falling, single point].
For the compound `Cc1ccc(NC(=O)c2noc3c2CC(C(C)(C)C)CC3)cc1` (stereo unspecified), the AC50 was 0.0398 µM [falling, full curve, poor fit].
Turning to `O=C(COc1ncnc2ccccc12)NCCC1=CCCCC1`, the concentration at half-maximal activity (AC50) is 3.98 µM [falling, partial curve].
As for `CCOC(=O)N1CCC(NC(=O)CNS(=O)(=O)c2ccc(Br)s2)CC1`, the AC50 is 0.1 µM [falling, full curve].
Regarding `CCN(CC)C(=O)CSc1nc2ccc(NC(=O)CSc3nccn3C)cc2s1`, the AC50 was 25.1 µM [falling, single point].
For the compound `COc1ccc(NC(=S)N2CCN(C(c3ccccc3)c3ccccc3)CC2)cc1OC`, the half-maximal activity concentration (AC50) was 0.01 µM [rising, full curve, poor fit].
As for `N#Cc1c(C(F)(F)F)cc(-c2ccc(F)cc2)nc1SCC(=O)Nc1ccccc1`, the figure is 22.4 µM [rising, partial curve]; as for `CC1CN(S(=O)(=O)c2cccc3nsnc23)CC(C)O1` (stereo unspecified), 0.00251 µM [rising, full curve, poor fit]; as for `CCc1cc(=O)oc2cc(C)cc(O)c12`, 10 µM [rising, partial curve].
As for `O=C(Nc1nn(Cc2ccc(Cl)cc2)cc1Br)c1ccc(COc2ccccc2Cl)o1`, the AC50 was 0.0794 µM [falling, full curve, poor fit].
Take `CC(=O)Nc1ccc(OCC(O)CNC2CCCC2)cc1` (stereo unspecified): the half-maximal activity concentration (AC50) is 0.501 µM [falling, single point].
Under `Cc1ccc(-n2c(C)nnc2SCC(=O)Nc2ccccc2)cc1` stands 0.316 µM [falling, partial curve, poor fit]; under `O=c1c(-c2ccnn2-c2ccc(F)cc2)cnc2n1CCS2`, 20 µM [falling, single point].
For `COc1ccc(CN(C(=S)Nc2ccccc2)C2CC(=O)N(c3ccc(Cl)cc3)C2=O)cc1` (stereo unspecified), the AC50 is 0.00501 µM [rising, full curve, poor fit].
For `O=C(O)c1cc(NCc2c(F)cccc2Cl)ccc1N1CCOCC1`, the AC50 was 31.6 µM [falling, single point].
For `CC1(C)CC(=O)c2c(-c3cccnc3)n[nH]c2C1`, the AC50 was 35.5 µM [falling, single point].
Consider `COc1cc(/C=C(/C#N)c2nc(-c3cc4ccccc4oc3=O)cs2)ccc1O`, for which the AC50 is 35.5 µM [falling, single point].
As for `O=C(NCCc1ccc(F)cc1)c1cccs1`, the AC50 was 0.251 µM [rising, single point].
In the case of `CCN(CCO)c1ncnc2c1sc1nc(C(C)C)c3c(c12)CC(C)(C)OC3`, the AC50 was 12.6 µM [rising, single point].
Under `CCCCOc1ccc(CNC(=O)NS(=O)(=O)c2ccc(OCC)cc2)cc1` stands 2.51 µM [falling, partial curve, poor fit].
Turning to `C=CCSc1nnc(-c2cccnc2)o1`, the AC50 was 0.0708 µM [falling, full curve].
As to `N#Cc1cc2nc(O)c(O)nc2cc1[N+](=O)[O-]`, the AC50 is 0.002 µM [falling, full curve, poor fit].
Consider `CC(CCc1ccccc1)NC(=O)C(Cc1ccccc1)NS(=O)(=O)c1cccs1` (stereo unspecified), for which the AC50 is 0.0501 µM [falling, full curve, poor fit].
Under `Cc1oc(CC(C)C)c(CN2CCCC2)c1C(=O)O` stands 10 µM [falling, partial curve].
Under `Cc1nnc(N2C(=O)c3oc4ccccc4c(=O)c3C2c2cccc(OCCC(C)C)c2)s1` (stereo unspecified) stands 25.1 µM [rising, single point].
For `O=C(CNc1ccccc1)N/N=C/c1c[nH]c2ccccc12`, the AC50 was 22.4 µM [falling, single point].
On to `N[C@@H](C(=O)O)c1ccc(C(=O)O)cc1`, for which the AC50 was 15.8 µM [falling, partial curve, poor fit].
Take `Cn1c(=O)n(C)c2cc([N+](=O)[O-])c(N3CCN(C(=O)c4ccccc4)CC3)cc21`: the AC50 is 0.631 µM [falling, full curve, poor fit].
Under `COc1ccc(-c2nc(N3CCC(C)CC3)[nH]c(=O)c2C#N)cc1` stands 31.6 µM [rising, single point].
